Measured values as given in the supplement of paper PMC7830784.
“And” between values parts separate entries of the source, which are not always exact repeats. Identical values can stand only once. Counter-ions that a name gives are not always drawn. This is one part of the list. Most values lie within the scatter of the assay; repeated measurements hardly agree.

tested on: Brugia pahangi adult female; experiment: motility inhibition on day 3 relative to DMSO vehicle; higher = more active; conditions: 10 µM; 3 days

Row | Structure (SMILES) | motility inhibition on day 3
1 | Nc1ncnc2c1ncn2[C@@H]1O[C@H](COP(=O)(O)O)[C@@H](O)[C@H]1O [adenosine phosphate] | 10.6%
2 | CC1=C(/C=C/C(C)=C/C=C/C(C)=C/C(=O)Nc2ccc(O)cc2)C(C)(C)CCC1 [Fenretinide] | 15.4%
3 | CC(c1cc2ccccc2s1)N(O)C(N)=O (stereo unspecified) [zileuton] | < 0%
4 | O=C(O)c1cc(O)c2c(c1)[C@H]([C@H]1c3cc(C(=O)O)cc(O)c3C(=O)c3c(O[C@@H]4O[C@H](CO)[C@@H](O)[C@H](O)[C@H]4O)cccc31)c1cccc(O[C@@H]3O[C@H](CO)[C@@H](O)[C@H](O)[C@H]3O)c1C2=O [sennoside a] | 39.9%
5 | CC(=O)Oc1cc(C(C)C)c(OCCN(C)C)cc1C [moxisylyte hydrochoride] | 24%
6 | Nc1ccc(S(=O)(=O)c2ccc(N)cc2)cc1 [dapsone] | < 0%
7 | OCCN1CCN(CCCN2c3ccccc3Sc3ccc(Cl)cc32)CC1 [perphenazine] | < 0%
8 | CN(C)CCc1c[nH]c2ccc(Cn3cncn3)cc12 [rizatriptan benzoate] | 0.34%
9 | Cn1nnnc1SCC1=C(C(=O)O)N2C(=O)[C@@H](NC(=O)[C@H](O)c3ccccc3)[C@H]2SC1 [cefamandole sodium] | < 0%
10 | CCC[C@H](N[C@@H](C)C(=O)N1[C@H](C(=O)O)C[C@@H]2CCCC[C@@H]21)C(=O)OCC [perindopril erbumine] | 11.5%
11 | COc1ccc(NS(=O)(=O)c2ccc(N)cc2)nn1 [sulfamethoxypyridazine] | 14.1%
12 | Nc1ccc(C(=O)NCC(=O)O)cc1 [aminohippuric acid] | 5.15%
13 | CC1(C)OC(=O)NC1=O [dimethadione] | < 0%
14 | N=C(N)NCC1COC2(CCCCC2)O1 (stereo unspecified) [guanadrel sulfate] | 0.882%
15 | CC(=O)Oc1cccc2c1C(=O)c1c(OC(C)=O)cc(C(=O)O)cc1C2=O [diacerin] | 13%
16 | Cc1ncc(CSSCc2cnc(C)c(O)c2CO)c(CO)c1O [pyritinol] | 14.7%
17 | O=C(Nc1ncc([N+](=O)[O-])s1)c1ccccc1O [Tizoxanide] | 99%
18 | N=C(N)NC(=N)N1CCOCC1 [moroxydine hydrochloride] | 17.4%
19 | N[C@H]1C(O)O[C@H](CO)[C@@H](O)[C@@H]1O (stereo partly specified) [glucosamine hydrochloride] | 16.3%
20 | C=C1C[C@H]2[C@@H]3C=C(C)C4=CC(=O)CC[C@]4(C)[C@H]3CC[C@]2(C)[C@@]1(OC(C)=O)C(C)=O [melengestrol acetate] | 46.7%
21 | CN1CCCC(n2nc(Cc3ccc(Cl)cc3)c3ccccc3c2=O)CC1 (stereo unspecified) [azelastine hydrochloride] | 3.8%
22 | O=C(CNC(=O)c1ccc(Cl)cc1)NO [benurestat] | 7.12%
23 | CC1=CC(=O)NS(=O)(=O)O1 [acesulfame potassium] | 0.709%
24 | CN(C)CCC[C@@]1(c2ccc(F)cc2)OCc2cc(C#N)ccc21 [escitalopram oxalate] | < 0%

Row | Structure (SMILES) | motility inhibition on day 3
25 | CCCC(=O)Nc1ncnc2c1ncn2[C@@H]1O[C@@H]2COP(=O)(O)O[C@H]2[C@H]1OC(=O)CCC [bucladesine] | 4.28%
26 | NC(=O)N/N=C/c1ccc([N+](=O)[O-])o1 [nitrofurazone] | 40.6%
27 | O=C(O[C@H]1CN2CCC1CC2)N1CCc2ccccc2[C@@H]1c1ccccc1 [solifenacin succinate] | 22.3%
28 | CN1CCCCC1CCN1c2ccccc2Sc2ccc([S+](C)[O-])cc21 (stereo unspecified) [mesoridazine besylate] | 12.4%
29 | CO[C@@H]1[C@@H](OC(N)=O)[C@@H](O)[C@H](Oc2ccc3c(O)c(NC(=O)c4ccc(O)c(CC=C(C)C)c4)c(=O)oc3c2C)OC1(C)C [novobiocin sodium] | 8.71%
30 | CCN1CCN(C(=O)N[C@@H](C(=O)N[C@@H]2C(=O)N3[C@@H]2SC(C)(C)[C@@H]3C(=O)O)c2ccccc2)C(=O)C1=O [piperacillin sodium] | 24.9%
31 | CC(=O)Oc1cccc(O)c1 [resorcinol monoacetate] | 33.7%
32 | Cc1ncc([N+](=O)[O-])n1CCO [metronidazole] | 30.9%
33 | CCN(CC)CC#CCOC(=O)C(O)(c1ccccc1)C1CCCCC1 (stereo unspecified) [oxybutynin chloride] | 4.89%
34 | OC(CCN1CCCCC1)(c1ccccc1)C1CC2C=CC1C2 (stereo unspecified) [biperiden] | 13.3%
35 | CCN(Cc1ccncc1)C(=O)C(CO)c1ccccc1 (stereo unspecified) [Tropicamide] | 12.6%
36 | CC(C)N1CCN(c2ccc(OCC3COC(Cn4cncn4)(c4ccc(Cl)cc4Cl)O3)cc2)CC1 (stereo unspecified) [terconazole] | 0.568%
37 | CN1C2CCCC1CC(NC(=O)c1nn(C)c3ccccc13)C2 (stereo unspecified) [granisetron hydrochloride] | 2.97%
38 | NC[C@H]1O[C@H](O[C@H]2[C@H](O[C@@H]3O[C@H](CO)[C@@H](O)[C@H]3O)[C@@H](O)[C@H](N)C[C@@H]2N)[C@H](N)[C@@H](O)[C@@H]1O [ribostamycin sulfate] | 4.88%
39 | Cc1ccc(C(=O)c2cc(O)c(O)c([N+](=O)[O-])c2)cc1 [Tolcapone] | < 0%
40 | COc1ccc2[nH]cc(CCNC(C)=O)c2c1 [Melatonin] | < 0%
41 | O=C([O-])c1ccccc1O.[Na+] [sodium salicylate] | 15.4%
42 | C=CC[C@@H]1/C=C(\C)C[C@H](C)C[C@H](OC)[C@H]2O[C@@](O)(C(=O)C(=O)N3CCCC[C@H]3C(=O)O[C@H](/C(C)=C/[C@@H]3CC[C@@H](O)[C@H](OC)C3)[C@H](C)[C@@H](O)CC1=O)[C@H](C)C[C@@H]2OC [tacrolimus] | 18.5%
43 | COCc1c(C(C)C)nc(C(C)C)c(/C=C/[C@@H](O)C[C@@H](O)CC(=O)O)c1-c1ccc(F)cc1 | < 0%
44 | Cc1ccc(S(=O)(=O)NC(=O)NN2CC3CCCC3C2)cc1 (stereo unspecified) [gliclazide] | 2.13%
45 | CC(=O)N[C@@H](CC(=O)N[C@@H](CCC(=O)O)C(=O)O)C(=O)O [spaglumic acid] | 16.2%
46 | NCCS(=O)(=O)O [taurine] | 3.39%
47 | COc1cc2nc(N3CCN(C(=O)c4ccco4)CC3)nc(N)c2cc1OC [prazosin hydrochloride] | 13.9%
48 | CCn1cc(C(=O)O)c(=O)c2cnc(N3CCNCC3)nc21 [pipemidic acid] | 19.4%

Row | Structure (SMILES) | motility inhibition on day 3
49 | Oc1c(I)cc(I)c2cccnc12 [iodoquinol] | 87.6%
50 | CCN(CC)CCNC(=O)c1cc(S(C)(=O)=O)ccc1OC [tiapride hydrochloride] | 4.78%
51 | O=C(CCCN1CC=C(n2c(=O)[nH]c3ccccc32)CC1)c1ccc(F)cc1 [droperidol] | 6.36%
52 | COc1ccc2cc(CCC(C)=O)ccc2c1 [nabumetone] | < 0%
53 | O=C(O)CCC(=O)OC[C@@H](NC(=O)C(Cl)Cl)[C@H](O)c1ccc([N+](=O)[O-])cc1 [chloramphenicol hemisuccinate] | 10.9%
54 | CCCCCC(C)N (stereo unspecified) [tuaminoheptane sulfate] | 59.1%
55 | C[C@H]1[C@@H](O)O[C@@H]2O[C@@]3(C)CC[C@H]4[C@H](C)CC[C@@H]1[C@@]24OO3 [artenimol] | 14.8%
56 | CCn1cc(C(=O)O)c(=O)c2ccc(C)nc21 [nalidixic acid] | < 0%
57 | C#CCN(C)Cc1ccccc1 [Pargyline hydrochloride] | < 0%
58 | CC(=O)OCC(COC(C)=O)OC(C)=O [triacetin] | 4.19%
59 | c1cnc2cc3c(cc2n1)[C@@H]1CNC[C@H]3C1 [Varenicline Tartrate] | 33.6%
60 | CO[C@H]1/C=C/O[C@@]2(C)Oc3c(C)c(O)c4c(c3C2=O)C2=NC3(CCN(CC(C)C)CC3)NC2=C(NC(=O)/C(C)=C\C=C\[C@H](C)[C@H](O)[C@@H](C)[C@@H](O)[C@@H](C)[C@H](OC(C)=O)[C@@H]1C)C4=O | 10.3%
61 | NC(=O)N1c2ccccc2C=Cc2ccccc21 [Carbamazepine] | 9.67%
62 | CN(C)CCN(Cc1cccs1)c1ccccn1 [methapyrilene hydrochloride] | 11.2%
63 | C=C1CC[C@H](O)C/C1=C/C=C1\CCC[C@]2(C)[C@@H]([C@H](C)CCCC(C)(C)O)CC[C@@H]12 [Calcifediol] | 4.65%
64 | O=C([O-])[C@H]1/C(=C/CO)O[C@@H]2CC(=O)N21.[Li+] [clavulanate lithium] | 7.59%
65 | CC(C)C[C@H](NC(=O)[C@@H](Cc1c[nH]c2ccccc12)NC(=O)[C@H](Cc1ccc(O)cc1)NC(=O)[C@H](CO)NC(=O)[C@H](Cc1c[nH]c2ccccc12)NC(=O)[C@H](Cc1c[nH]cn1)NC(=O)[C@@H]1CCC(=O)N1)C(=O)N[C@@H](CCCNC(=N)N)C(=O)N1CCC[C@H]1C(=O)NCC(N)=O [Triptorelin] | < 0%
66 | Nc1nc(=O)c2nc(CNc3ccc(C(=O)N[C@@H](CCC(=O)O)C(=O)O)cc3)cnc2[nH]1 [folic acid] | 4.31% and 16.7%
67 | CC(=O)N[C@@H](CC(C)C)C(=O)O [acetyl-l-leucine] | 5.26%
68 | CC[C@H]1OC(=O)[C@H](C)[C@@H](O[C@H]2C[C@@](C)(OC)[C@@H](O)[C@H](C)O2)[C@H](C)[C@@H](O[C@@H]2O[C@H](C)C[C@H](N(C)C)[C@H]2O)[C@](C)(O)C[C@@H](C)/C(=N\OCOCCOC)[C@H](C)[C@@H](O)[C@]1(C)O [roxithromycin] | 43.7%
69 | CC(C)NCC(O)COc1ccc(COCCOC(C)C)cc1 (stereo unspecified) [bisoprolol fumarate] | 5.06%
70 | O=C1CN2Cc3c(ccc(Cl)c3Cl)N=C2N1 [anagrelide hydrochloride] | 25.7%
71 | CC(C)C(=O)OCC(=O)[C@@]12O[C@H](C3CCCCC3)O[C@@H]1C[C@H]1[C@@H]3CCC4=CC(=O)C=C[C@]4(C)[C@H]3[C@@H](O)C[C@@]12C [Ciclesonide] | 11.3%
